Source: US20030219793A1
These are yes or no findings as the source states them, for the method shown. Some binding calls cover weakened binding; strength is not graded here.

Key:
[1] = target: T1, Zmax1 cytoplasmic domain bait (entire cytoplasmic domain and a portion of the transmembrane domain) (human) (UniProt O75197); assay: yeast two-hybrid screens
T1 sequence: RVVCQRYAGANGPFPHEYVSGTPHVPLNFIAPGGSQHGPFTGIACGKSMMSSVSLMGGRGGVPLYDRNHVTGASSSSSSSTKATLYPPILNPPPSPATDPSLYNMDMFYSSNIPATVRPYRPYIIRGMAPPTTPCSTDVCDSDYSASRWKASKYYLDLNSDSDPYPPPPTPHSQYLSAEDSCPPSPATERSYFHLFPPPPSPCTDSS

[2] = target: T1, Zmax1 cytoplasmic domain bait (entire cytoplasmic domain and a portion of the transmembrane domain) (human); assay: yeast two-hybrid screen, Zmax1 cytoplasmic domain as bait; listed in Table 6 (Yeast Two Hybrid Results)

B1: PINCH-like protein (novel) (protein, not shown: large carriers)
chain: STGSEFPLCTKASPCSAARAGGRALGWRLQQQRETRGNPGNPGLGVAATMTGSNMSDALANAVCQRCQARFSPAERIVNSNGELYHEHCFVCAQCFRPFPEGLFYEFEGRKYCEHDFQMLFAPCCGSCGEFIIGRVIKAMNNNWHPGCFRCELCDVELADLGFVKNAGRHLCRPCHNREKAKGLGKYICQRCHLVIDEQPLMFRSDAYHPDHFNCTHCGKELTAEARELKGELYCLPCHDKMGVPICGACRRPIEGRVVNALGKQWHVEHFVCAKCEKPFLGHRHYEKKGLAYCEL
B1 was tested, and the binding [1] was “binds” and the binding [2] was “binds”.
